Source: patent US20250134792A1, “COMPOSITIONS AND METHODS FOR TREATING SKIN” (L'Oreal, priority 2023, published 2025)
At least one compound was matched to its structure with a doubt left.

Test system: Full thickness reconstructed skin (T-Skin from Episkin)
Experiment: sGAG release from full thickness reconstructed skin
Type: cell-based, human
Settings: proxylane 3 mM, niacinamide 200 μM, systemic treatment; FIG. 4

Compound: CC(O)C[C@@H]1OC[C@@H](O)[C@H](O)[C@H]1O (stereo partly shown) [proxylane, hydroxypropyl tetrahydropyrantriol]
- sGAG secretion (release into the supernatant): significantly increases
